Data on two substances can be found in paper PMC4728353.

Amino acid sequences for entries named in this document (tags omitted). A change or cut given only in a name is not applied to a line headed by its entry. Residues count along the entry.
UniProt Q9Z207: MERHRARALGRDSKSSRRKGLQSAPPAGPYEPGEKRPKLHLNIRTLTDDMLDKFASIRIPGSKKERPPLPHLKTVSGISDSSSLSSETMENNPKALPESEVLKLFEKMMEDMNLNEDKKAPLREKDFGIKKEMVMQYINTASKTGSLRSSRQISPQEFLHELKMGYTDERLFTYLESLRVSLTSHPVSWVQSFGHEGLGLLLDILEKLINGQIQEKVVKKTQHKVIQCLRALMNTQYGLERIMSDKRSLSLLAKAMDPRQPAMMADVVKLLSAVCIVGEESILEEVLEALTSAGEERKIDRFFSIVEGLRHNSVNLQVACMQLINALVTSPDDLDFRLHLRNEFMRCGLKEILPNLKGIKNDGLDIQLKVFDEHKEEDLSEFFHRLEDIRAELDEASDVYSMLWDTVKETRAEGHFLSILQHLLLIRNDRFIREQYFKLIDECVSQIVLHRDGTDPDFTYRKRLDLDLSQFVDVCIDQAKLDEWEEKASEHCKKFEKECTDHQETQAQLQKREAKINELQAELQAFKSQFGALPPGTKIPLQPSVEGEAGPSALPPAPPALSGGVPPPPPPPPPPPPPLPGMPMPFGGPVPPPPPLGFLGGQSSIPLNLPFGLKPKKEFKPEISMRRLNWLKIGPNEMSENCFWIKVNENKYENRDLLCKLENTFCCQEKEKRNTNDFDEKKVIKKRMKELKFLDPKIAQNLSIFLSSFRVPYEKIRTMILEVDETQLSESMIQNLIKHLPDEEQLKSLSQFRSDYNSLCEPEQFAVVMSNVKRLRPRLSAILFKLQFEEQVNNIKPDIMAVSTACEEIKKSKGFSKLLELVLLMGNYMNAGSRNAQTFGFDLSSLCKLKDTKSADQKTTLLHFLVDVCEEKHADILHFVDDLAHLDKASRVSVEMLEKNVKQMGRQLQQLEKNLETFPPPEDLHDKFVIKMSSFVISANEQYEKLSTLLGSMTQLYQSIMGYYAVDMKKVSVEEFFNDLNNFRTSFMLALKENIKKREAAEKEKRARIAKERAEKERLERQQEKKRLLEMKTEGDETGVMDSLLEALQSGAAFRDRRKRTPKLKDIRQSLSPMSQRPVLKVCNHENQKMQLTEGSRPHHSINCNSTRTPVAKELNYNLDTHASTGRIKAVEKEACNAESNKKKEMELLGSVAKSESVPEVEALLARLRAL
EGFP-mDia2 ΔN (33-1171 aa): residues 33-1171 of Q9Z207
UniProt Q14974: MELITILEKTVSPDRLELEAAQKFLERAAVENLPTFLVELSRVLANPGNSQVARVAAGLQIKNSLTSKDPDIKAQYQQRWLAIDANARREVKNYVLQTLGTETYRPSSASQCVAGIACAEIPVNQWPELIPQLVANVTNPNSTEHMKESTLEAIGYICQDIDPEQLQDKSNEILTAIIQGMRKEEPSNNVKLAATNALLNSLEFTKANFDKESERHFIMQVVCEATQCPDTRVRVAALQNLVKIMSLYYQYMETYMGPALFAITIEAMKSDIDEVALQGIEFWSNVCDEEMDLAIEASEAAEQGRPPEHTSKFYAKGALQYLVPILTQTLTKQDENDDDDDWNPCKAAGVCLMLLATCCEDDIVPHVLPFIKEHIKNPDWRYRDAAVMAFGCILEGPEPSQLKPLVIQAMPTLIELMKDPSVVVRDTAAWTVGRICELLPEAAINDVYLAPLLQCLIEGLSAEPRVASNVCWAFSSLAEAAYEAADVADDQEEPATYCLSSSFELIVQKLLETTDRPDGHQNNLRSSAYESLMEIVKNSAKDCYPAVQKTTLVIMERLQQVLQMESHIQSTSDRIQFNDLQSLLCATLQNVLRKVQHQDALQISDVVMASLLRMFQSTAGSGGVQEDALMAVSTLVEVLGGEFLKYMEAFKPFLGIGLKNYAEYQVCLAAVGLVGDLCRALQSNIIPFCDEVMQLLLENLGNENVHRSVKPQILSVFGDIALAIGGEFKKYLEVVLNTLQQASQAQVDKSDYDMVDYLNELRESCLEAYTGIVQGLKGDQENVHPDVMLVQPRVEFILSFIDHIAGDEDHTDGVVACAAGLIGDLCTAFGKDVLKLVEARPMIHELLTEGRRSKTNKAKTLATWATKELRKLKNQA

These are yes or no findings as the source states them, for the method shown. In cells and extracts the contact can be indirect. Some binding calls cover weakened binding; strength is not graded here.

For test [1], the target named is EGFP-fused full-length mDia2 (Diaphanous-related formin-3) (UniProt Q9Z207). Kind of test: co-IP; lysate of HEK 293T cells co-transfected with EGFP-mDia2 (FL or ΔN) and mCherry-importin β; GFP antibody and protein G Sepharose beads, 2 h at 4°C; RIPA buffer (50 mM Tris-HCl, 150 mM NaCl, 10 mM EDTA, 1% Triton X-100, pH 8.0); immunoblot with anti-GFP and anti-importin β.

The target of test [2] is EGFP-mDia2 ΔN (33-1171 aa) (UniProt Q9Z207). Described as above.

For the substance “endogenous importin β (from UniProt Q14974 1-876)”, the binding entry in test [1] and in test [2] was “binds” in each case.
As to “mCherry-importin β (from UniProt Q14974 1-876)”, the binding entry in test [1] and in test [2] was “binds” each time.
